## Primary screen of a compound library

Sequences of proteins named here, by UniProt entry; tags and fusion partners are left off. Residues count along the entry.
UniProt P9WPC5, whole entry: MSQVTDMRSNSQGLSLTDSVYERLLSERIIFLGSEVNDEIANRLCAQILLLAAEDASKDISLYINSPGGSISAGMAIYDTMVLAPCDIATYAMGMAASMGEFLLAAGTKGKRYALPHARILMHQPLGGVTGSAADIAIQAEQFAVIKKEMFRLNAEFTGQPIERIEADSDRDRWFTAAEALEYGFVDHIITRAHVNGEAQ
UniProt P9WPC3, whole entry partner: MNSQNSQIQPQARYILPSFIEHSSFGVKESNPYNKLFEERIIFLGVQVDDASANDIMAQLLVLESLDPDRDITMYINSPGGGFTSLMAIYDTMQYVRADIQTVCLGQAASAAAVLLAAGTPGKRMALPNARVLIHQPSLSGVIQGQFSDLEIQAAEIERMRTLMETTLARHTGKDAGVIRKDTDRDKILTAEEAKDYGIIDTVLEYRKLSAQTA
UniProt I6X8D2, whole entry: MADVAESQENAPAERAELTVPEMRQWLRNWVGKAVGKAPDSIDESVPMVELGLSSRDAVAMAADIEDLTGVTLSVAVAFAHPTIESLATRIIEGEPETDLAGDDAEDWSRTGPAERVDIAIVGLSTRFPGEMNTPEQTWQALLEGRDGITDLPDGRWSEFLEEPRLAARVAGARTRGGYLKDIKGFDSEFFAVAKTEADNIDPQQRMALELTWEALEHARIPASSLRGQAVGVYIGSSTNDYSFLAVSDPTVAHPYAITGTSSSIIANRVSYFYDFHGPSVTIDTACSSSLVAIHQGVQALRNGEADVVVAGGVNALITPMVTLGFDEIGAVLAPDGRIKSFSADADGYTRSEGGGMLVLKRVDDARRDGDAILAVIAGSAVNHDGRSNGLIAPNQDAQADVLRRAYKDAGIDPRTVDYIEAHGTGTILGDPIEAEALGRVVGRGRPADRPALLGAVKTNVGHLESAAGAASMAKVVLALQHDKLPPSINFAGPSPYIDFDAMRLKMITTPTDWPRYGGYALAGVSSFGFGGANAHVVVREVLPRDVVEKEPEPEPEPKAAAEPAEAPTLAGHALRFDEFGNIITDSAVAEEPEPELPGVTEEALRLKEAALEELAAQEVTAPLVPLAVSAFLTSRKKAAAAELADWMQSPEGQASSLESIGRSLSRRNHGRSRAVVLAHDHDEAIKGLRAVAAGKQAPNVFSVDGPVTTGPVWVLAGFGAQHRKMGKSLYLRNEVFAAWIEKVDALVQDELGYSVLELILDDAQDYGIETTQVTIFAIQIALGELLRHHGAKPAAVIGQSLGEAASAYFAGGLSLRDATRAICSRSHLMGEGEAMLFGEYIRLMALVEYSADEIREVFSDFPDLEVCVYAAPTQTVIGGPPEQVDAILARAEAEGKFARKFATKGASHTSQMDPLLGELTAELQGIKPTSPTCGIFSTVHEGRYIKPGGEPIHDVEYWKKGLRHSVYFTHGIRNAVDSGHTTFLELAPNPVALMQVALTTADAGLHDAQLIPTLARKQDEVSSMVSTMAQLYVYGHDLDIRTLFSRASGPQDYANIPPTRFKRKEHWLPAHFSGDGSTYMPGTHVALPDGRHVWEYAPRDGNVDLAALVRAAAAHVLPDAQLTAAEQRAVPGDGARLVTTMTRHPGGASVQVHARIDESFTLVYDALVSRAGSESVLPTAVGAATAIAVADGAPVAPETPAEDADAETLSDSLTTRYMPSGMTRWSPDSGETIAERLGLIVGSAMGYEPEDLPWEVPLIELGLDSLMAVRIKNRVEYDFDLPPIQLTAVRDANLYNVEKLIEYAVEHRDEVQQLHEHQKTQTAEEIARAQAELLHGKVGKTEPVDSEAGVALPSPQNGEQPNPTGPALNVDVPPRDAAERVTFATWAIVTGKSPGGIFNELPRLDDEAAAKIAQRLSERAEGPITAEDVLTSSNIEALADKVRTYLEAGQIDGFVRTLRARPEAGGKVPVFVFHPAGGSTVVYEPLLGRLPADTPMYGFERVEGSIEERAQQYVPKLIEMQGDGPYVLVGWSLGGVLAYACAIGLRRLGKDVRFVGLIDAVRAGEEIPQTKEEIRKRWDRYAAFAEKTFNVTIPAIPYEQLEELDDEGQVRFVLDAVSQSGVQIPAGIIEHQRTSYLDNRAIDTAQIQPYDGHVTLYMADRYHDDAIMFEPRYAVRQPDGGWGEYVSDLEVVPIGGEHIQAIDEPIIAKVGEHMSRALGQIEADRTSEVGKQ
UniProt Q8IDJ8, 1-583: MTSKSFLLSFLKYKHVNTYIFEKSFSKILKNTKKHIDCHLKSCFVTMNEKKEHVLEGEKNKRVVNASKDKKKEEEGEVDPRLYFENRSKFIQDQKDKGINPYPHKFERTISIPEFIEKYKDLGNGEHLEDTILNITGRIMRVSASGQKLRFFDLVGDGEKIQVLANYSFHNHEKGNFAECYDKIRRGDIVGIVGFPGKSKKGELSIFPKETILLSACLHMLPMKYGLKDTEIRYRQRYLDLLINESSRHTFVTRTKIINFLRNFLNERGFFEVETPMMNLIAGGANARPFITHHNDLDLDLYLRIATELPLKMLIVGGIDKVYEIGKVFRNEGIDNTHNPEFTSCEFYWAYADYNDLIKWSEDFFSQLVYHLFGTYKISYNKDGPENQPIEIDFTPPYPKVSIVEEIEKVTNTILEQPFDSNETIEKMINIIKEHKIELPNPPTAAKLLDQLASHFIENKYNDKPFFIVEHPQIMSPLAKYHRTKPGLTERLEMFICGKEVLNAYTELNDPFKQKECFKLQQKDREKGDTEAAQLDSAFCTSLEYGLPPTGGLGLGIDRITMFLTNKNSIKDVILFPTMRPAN

The values are deposited in ChEMBL (CHEMBL3988442, “University of Dundee, Small-Polar-MMV Screening Library” (2021)).

Each number is a percent effect as filed. How 0% and 100% were set is not recorded. Most values in the screen are low, and negative values occur. Compounds were drawn at random from those tested, without regard to their results. Two or more numbers in one place are separate tests of the same structure; such repeats can differ widely. A dash means the value is not listed here; it may have been measured.

ClpP1P2: 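Protease assay of ClpP1P2, read by the AMC dye that it sets free. Target: ClpP1P2, Mycobacterium tuberculosis (UniProt P9WPC5 and UniProt P9WPC3). Compounds at 50 µM. Direction is inferred from only a few compounds that gave an IC50; most scored high, so higher reads as stronger inhibition. Most other retested compounds had strongly negative values. Of about 69,000 compounds tested this way, about 10 (0.015%) reached 50% or more in at least one test.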
Leishmania in macrophages: 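Cell assay of Leishmania donovani living inside macrophages; the read-out is not stated. Compounds at 30 µM. Higher reads as stronger inhibition (inferred: compounds with an IC50 in retests scored well above the rest). Of about 69,000 compounds tested this way, about 1,000 (1.5%) reached 50% or more in at least one test.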
Pks13 thioesterase: 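Enzyme assay of the thioesterase domain of polyketide synthase 13; the read-out is not stated. Target: Polyketide synthase Pks13, Mycobacterium tuberculosis (UniProt I6X8D2). Concentration: 30 µM. Higher reads as stronger inhibition (inferred from which compounds were picked for retests). About 67,000 compounds were tested under these conditions; 0.46% (about 300) showed 50% or more at least once.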
PfKRS1: 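Enzyme assay of the cytosolic lysyl-tRNA synthetase in 384-well plates, read by luminescence. Target: Lysine-tRNA ligase, Plasmodium falciparum 3D7 (UniProt Q8IDJ8). Concentration: 30 µM. Direction is inferred from only a few compounds that gave an IC50; most scored high, so higher reads as stronger inhibition. Size under these conditions: about 69,000 compounds, about 49 of them at 50% or above in at least one test.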
Toxoplasma: 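Assay of Toxoplasma gondii numbers, read through their beta-galactosidase reporter with a colour substrate. Concentration: 10 µM. The record gives no direction; the compounds picked for IC50 retests had high values, so higher reads as fewer parasites. Size under these conditions: about 67,000 compounds, about 260 of them at 50% or above in at least one test.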

| # | structure | ClpP1P2 | Leishmania in macrophages | Pks13 thioesterase | PfKRS1 | Toxoplasma |
|---|---|---|---|---|---|---|
| 1 | `O=C(O)C(F)(F)F.O=C(O)C(F)(F)F.[H][C@@]12COC[C@]1(COc1ccccn1)CN(c1ncc(F)cn1)C2` | - | -6.11 | - | - | -20.16 |
| 2 | `CN(C)C(=O)N1CCC2(CCCN(Cc3cnn(C)c3)C2)C1` (centres undefined) | 0.07382 | - | -19.03 | -3.644 | - |
| 3 | `CCCN1CCC(CC(=O)N[C@H](C(=O)O)c2cccc(F)c2F)CC1` | 2.904 | -12.64 | -4.741 | 0.9212 | 1.424 |
| 4 | `Cc1ccccc1CNCc1cc(Cl)ccc1O` | 1.048 | -18.5 | -13.63 | 3.254 | -4.112 |
| 5 | `Cc1nc(C)n(CC2CN(S(C)(=O)=O)Cc3nccn3C2)n1` (centres undefined) | -10.38 | 0.4261 | - | -0.4427 | -3.151 |
| 6 | `CCCc1noc(CCC(=O)N2CCCC2c2ccsc2)n1` (centres undefined) | 0.4471 | 35.02 | -44.23 | 2.809 | - |
| 7 | `O=S(=O)(NC1CCCCC12OCCO2)c1cc(Cl)cc(Cl)c1` (centres undefined) | -6.219 | -8.648 | 6.358 | 1.092 | -23.71 |
| 8 | `Cc1nc(C2CCN2c2ncccn2)cc(N(C)C)n1` (centres undefined) | -22.01 | 20.5 | 4.662 | 0.2173 | 10.97 |
| 9 | `C1CC(N2Cc3nnn(CC4CC4)c3C(COCC3CC3)C2)C1` (centres undefined) | -5.978 | - | 6.612 | 3.219 | - |
| 10 | `C=Cc1ccc(C(=O)N2CCCC(Nc3ccccc3)C2)cc1` (centres undefined) | -13.9 | -33.74 | -23.42 | -3.346 | 5.353 |
| 11 | `Cn1cc(C(=O)Nc2cccc(Oc3ccncc3)c2)ccc1=O` | 0.2114 | 0.755 | 9.602 | 0.2591 | 8.989 |
| 12 | `Cc1cc(N2CCCN(CCc3ccccc3)CC2)ccn1` | 6.235 | 18.28 | -18.74 | 5.623 | 9.574 |
| 13 | `COCc1n[nH]c2c1CN(Cc1cccs1)C2.O=C(O)C(F)(F)F` | - | 2.609 & -0.803 | - | - | 0.06299 |
| 14 | `Cc1ccc(CNC2CCCN(Cc3noc(C4CC4)n3)C2)s1` (centres undefined) | 21.15 | 1.737 | -18.19 | -4.271 | 4.946 |
| 15 | `O=C(c1ccc[nH]1)N1CCN(C(c2ccccc2)C(F)(F)F)CC1` (centres undefined) | -6.689 | -9.412 | -7.115 | 6.53 | 1.233 |
| 16 | `Cn1cc(N2CC3(CCN(Cc4ccoc4)CC3)OCC2=O)cn1.O=C(O)C(F)(F)F` | - | 11.86 | - | - | -7.574 |
| 17 | `CN1CCC(c2cc(CCO)ncn2)C1` (centres undefined) | -2.016 | 9.415 | -13.59 | 1.613 | - |
| 18 | `Cc1cc(CN2CC[C@]3(C[C@@H](OCC(=O)N(C)C)CO3)C2)no1` | -0.5185 | - | -15.56 | 2.414 | - |
| 19 | `O=C(O)C(F)(F)F.[H][C@@]12CN(C(=O)c3ccncc3F)C[C@]1([H])OCCN2C(C)C` | - | 10.51 | - | - | 8.777 |
| 20 | `Cc1nonc1OCCNC(=O)COc1ccc(Cl)cc1Cl` | -5.01 | 19.12 | 1.167 | 4.55 | 12.03 |
| 21 | `Cc1cnc(N2C[C@H]3C[C@H](C(=O)N(C)C)[C@@H](C2)O3)nc1` | -5.113 | - | - | -3.963 | - |
| 22 | `CCOC(=O)CN1CCC2(CC1)CC(=O)c1ccc(OC)cc1O2` | 22.01 | 16.67 | -3.919 | 1.321 | -1.373 |
| 23 | `Cc1ccc(F)cc1S(=O)(=O)NCc1[nH]ncc1Br` | 6.177 | -27.22 | -10.79 | 11.29 | 7.156 |
| 24 | `[H][C@]12CCN(C(=O)c3ccsc3)[C@@]1([H])CCC(=O)N2Cc1csc(C)n1` | - | 18.22 | - | - | 2.313 |
| 25 | `Cl.Cn1cccc1C(=O)N1CCc2c(CNS(C)(=O)=O)cncc2C1` | - | 7.628 | - | - | 10.1 |
| 26 | `O=C(c1ncc[nH]1)N1CCC(Cn2cc(-c3cccc(Cl)c3)nn2)CC1` | -10.64 | 1.745 | -10.29 | -4.09 | -11.18 |
| 27 | `CCc1nc(C2CCCN2Cc2nccn2CC(F)(F)F)no1` (centres undefined) | -28.92 | -20.37 | -20.82 | -0.08436 | 10.44 |
| 28 | `CC(C)n1[nH]c(=O)c2c1NC(=O)CSC2c1ccc(OCC(N)=O)cc1` (centres undefined) | -8.919 | 12.41 | -12.79 | 3.805 | -0.597 |
| 29 | `COc1cc(CCC(=O)N2CCC(c3cc4nccnc4[nH]3)CC2)on1` | -1.456 | 30.74 | 16.56 | -1.684 | 5.031 |
| 30 | `Cc1nc(CN2C[C@@H]3CN(c4ncccn4)C[C@@H]3C2=O)cs1` | -13.77 | - | -13.85 | -0.7134 | - |
| 31 | `CCC(=O)N1CSCC1C(=O)N(C)CCc1ccccc1` (centres undefined) | 5.274 | -35 | -1.812 | -3.809 | 1.239 |
| 32 | `CCN1CCC(NC(=O)Cc2csc(C(C)(C)C)n2)CC1` | -3.183 | 11.17 | -28.69 | -1.751 | 11.42 |
| 33 | `COc1ncc(CN2CCOC(Cc3cccc4ccccc34)C2)cn1` (centres undefined) | -0.4682 | 5.727 | -19.82 | -2.315 | -5.701 |
| 34 | `CN(C)CCOCc1nnc2n1CCN(Cc1ccoc1)CC2` | -10.62 | - | -27.9 | -0.2831 | - |
| 35 | `CCn1c(C2CCN(C(=O)c3cc(CC(C)C)no3)CC2)nn(C)c1=O` | 13.81 | 30.83 | -0.2588 | -0.06723 | -10.46 |
| 36 | `CN1C(=O)[C@H]2CC[C@@H]1CN(C(=O)c1sccc1S(N)(=O)=O)C2` | -1.1 | - | -33.35 | 0.4185 | - |
| 37 | `CC(C)(C)c1noc(OCC(=O)NCC(F)(F)F)n1` | -12.24 | 6.805 | -6.975 | 5.417 | -5.183 |
| 38 | `O=C(NC1CCCN(c2ncccn2)C1)c1cn2ccccc2n1` (centres undefined) | -8.949 | 23.39 | -0.6575 | 3.69 | 0.6787 |
| 39 | `CCc1ncc2c(n1)CN(CCCOc1ccc(C#N)cc1)CC2` | 3.378 | -1.056 | -25.91 | 12.9 | 6.667 |
| 40 | `c1csc(-c2nc(CN3CCCC3Cn3cncn3)co2)c1` (centres undefined) | -13.07 | 18.11 | -4.806 | 0.01159 | 1.861 |
| 41 | `O=C(O)CC1CN(S(=O)(=O)c2cccc(F)c2)c2ccccc21` (centres undefined) | -13.35 | 4.583 | -24.17 | 2.712 | -1.942 |
| 42 | `O=C(CN1CCOCC1)N(c1ccccc1)c1ccccc1` | -7.209 | -18.28 | -16.76 | 4.054 | 22.46 |
| 43 | `CC(C)CCN1CCN(C(=O)c2c[nH]nn2)CC1` | 20.41 | -17.31 | -84.91 | -1.268 | 22.39 |
| 44 | `CNC(=O)CN1CCC(CN(C)Cc2ccccc2N(C)C)CC1` | -3.324 | 22.41 | -8.603 | -1.124 | 0.0833 |
| 45 | `COc1ncc(NC(=O)Nc2cc(C)ccc2OC)cn1` | -0.4391 | -5.183 | -20.44 | -2.496 | 0.1109 |
| 46 | `CCc1cc(CNC(=O)C2CCC(=O)N(Cc3ccccc3F)C2)on1` (centres undefined) | -31.06 | 17.25 | -6.152 | 5.67 | -2.015 |
| 47 | `COCCCOc1ccc(C(=O)N(Cc2cnn(C)c2)C(C)C)cn1` | -7.253 | 8.119 | -13.08 | -2.436 | 8.886 |
| 48 | `COc1ccc(CC(=O)N2CCC[C@@H](N)[C@@H]2c2ccccc2F)cc1.Cl` | - | 50.59 | - | - | -1.756 |
| 49 | `O=C(CCn1ccc2ccccc21)N1CCC(Nc2cccnc2)CC1` | 1.851 | -0.3528 | -7.213 | 5.545 | -5.907 |
| 50 | `COc1ccc(C2CN(c3cc(C)ncn3)CCN2C(C)=O)cc1` (centres undefined) | -6.255 | 17.93 | 3.863 | 2.982 | -1.726 |
| 51 | `Cc1ccccc1[C@@H]1CN(CCOCCO)C[C@H]1C(=O)O` | -11.6 | 33.69 | - | 4.966 | 2.692 |
| 52 | `O=C(Cn1cc(Cl)cn1)Nc1ccc2c(c1)OCO2` | 1.188 | 12.61 | -37.87 | 5.645 | -9.318 |
| 53 | `O=C(NCc1nnc2n1CCCCC2)N1CCc2sccc2C1` | 3.71 | 11.8 | -12.05 | -2.831 | -1.744 |
| 54 | `CNS(=O)(=O)CCCN1CCCN(Cc2ccccc2)CC1C` (centres undefined) | 11.01 | -37.07 | -6.332 | 1.204 | -1.073 |
| 55 | `CCCc1nc(CN2CCN(C(C)c3nc(C4CC4)no3)CC2)no1` (centres undefined) | -17.98 | 10.09 | -9.369 | 1.46 | 14.72 |
| 56 | `CN1C(=O)CO[C@H]2CCN(C(=O)Cc3ccc4c(c3)CCCC4)CC[C@@H]21` | 2.782 | - | 12.4 | 0.2703 | - |
| 57 | `Cc1ccc(CN2CCC(n3cc(C(O)c4ccccc4)nn3)CC2)o1` (centres undefined) | -17.28 | 14.63 | -7.255 | 1.457 | 2.213 |
| 58 | `Cn1c(CN2CCCC2)nnc1C1CCCN(C(=O)N2CCOCC2)C1` (centres undefined) | -14.5 | -2.085 | -0.2126 | 7.311 | -7.571 |
| 59 | `c1sc(C2CCCCC2)nc1CN1CCn2c(nnc2C2CC2)C1` | -9.183 | 33.5 | -5.089 | 1.492 | -0.8391 |
| 60 | `O=C1CSC(c2ccncc2)c2c(n(C3CCOCC3)[nH]c2=O)N1` (centres undefined) | 10.11 | -1.824 | -13.45 | 1.552 | 3.058 |

Repeated from the top, 7 entries:

* O=C(O)C(F)(F)F.O=C(O)C(F)(F)F.[H][C@@]12COC[C@]1(COc1ccccn1)CN(c1ncc(F)cn1)C2 : Leishmania in macrophages: -6.11%; Toxoplasma: -20.16%
* CN(C)C(=O)N1CCC2(CCCN(Cc3cnn(C)c3)C2)C1 (centres undefined) : ClpP1P2: 0.07382%; Pks13 thioesterase: -19.03%; PfKRS1: -3.644%
* CCCN1CCC(CC(=O)N[C@H](C(=O)O)c2cccc(F)c2F)CC1 : ClpP1P2: 2.904%; Leishmania in macrophages: -12.64%; Pks13 thioesterase: -4.741%; PfKRS1: 0.9212%; Toxoplasma: 1.424%
* Cc1ccccc1CNCc1cc(Cl)ccc1O : ClpP1P2: 1.048%; Leishmania in macrophages: -18.5%; Pks13 thioesterase: -13.63%; PfKRS1: 3.254%; Toxoplasma: -4.112%
* Cc1nc(C)n(CC2CN(S(C)(=O)=O)Cc3nccn3C2)n1 (centres undefined) : ClpP1P2: -10.38%; Leishmania in macrophages: 0.4261%; PfKRS1: -0.4427%; Toxoplasma: -3.151%
* CCCc1noc(CCC(=O)N2CCCC2c2ccsc2)n1 (centres undefined) : ClpP1P2: 0.4471%; Leishmania in macrophages: 35.02%; Pks13 thioesterase: -44.23%; PfKRS1: 2.809%
* O=S(=O)(NC1CCCCC12OCCO2)c1cc(Cl)cc(Cl)c1 (centres undefined) : ClpP1P2: -6.219%; Leishmania in macrophages: -8.648%; Pks13 thioesterase: 6.358%; PfKRS1: 1.092%; Toxoplasma: -23.71%